Results are given in words; binding and its absence hold for the method and conditions named. In cells and extracts the contact can be indirect. Some binding calls cover weakened binding; strength is not graded here.
Target: eIF2γ-YFP (synthesized in vitro) (Arabidopsis thaliana) (UniProt O64490)
Assay: co-IP; in vitro eIF2 assembly: proteins made separately in a wheat germ translation system, mixed in equal proportions with CDC123 (WT), CDC123-D251N or control, 1 hr at room temperature (with or without 10 mM ATPγS), diluted in IP buffer, IP with GFP-Trap or anti-myc beads at 4 °C

Amino acid sequences for entries named in this document (tags omitted).
UniProt O64490: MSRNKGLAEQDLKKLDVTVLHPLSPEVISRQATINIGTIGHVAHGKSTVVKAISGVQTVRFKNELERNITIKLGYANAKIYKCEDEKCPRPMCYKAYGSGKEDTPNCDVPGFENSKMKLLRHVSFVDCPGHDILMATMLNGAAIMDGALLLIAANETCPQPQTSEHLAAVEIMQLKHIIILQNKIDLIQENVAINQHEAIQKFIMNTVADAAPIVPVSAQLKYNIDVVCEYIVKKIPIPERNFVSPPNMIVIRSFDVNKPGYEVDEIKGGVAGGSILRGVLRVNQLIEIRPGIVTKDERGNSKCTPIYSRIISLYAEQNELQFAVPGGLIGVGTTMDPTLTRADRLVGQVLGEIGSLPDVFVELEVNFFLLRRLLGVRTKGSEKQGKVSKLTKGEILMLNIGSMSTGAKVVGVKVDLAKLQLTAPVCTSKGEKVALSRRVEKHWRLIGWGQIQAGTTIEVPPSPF

B1: eIF2β (synthesized in vitro) (protein, UniProt Q41969 1-268)
chain: MADEINEIREEQEQLAPFDPSKKKKKKKVVIQEPVEDLAESSQTEKSDSLPVNDGLESSFTGMKKKKKKPTESSLLNNESVDAGEDLDEIANDEQEGEEGIVLQQRYPWEGSERDYIYDELLGRVFNILRENNPELAGDRRRTVMRPPQVLREGTKKTVFVNFMDLCKTMHRQPDHVMQYLLAELGTSGSLDGQQRLVVKGRFAPKNFEGILRRYITDYVICLGCKSPDTILSKENRLFFLRCEKCGSQRSVAPIKTGFVARVSRRKT
binding: binds

— paper PMC10898606
